In publication PMC4381287, “Structural characterization of the late competence protein ComFB from Bacillus subtilis” (Bioscience Reports, 2014) one finds binding data, which are given here for three molecules.

Holding throughout (assay): SEC; Superdex75 10/300 column, calibrated with standards of known molecular weight; wild type and variants at similar concentrations; both purified
In general terms: In gel filtration, larger molecules generally elute earlier.

Assay [1] has as its target ComFB N4K variant, histidine-tagged (B. subtilis) (UniProt P39146).
The target of assay [2] is ComFB Y46F variant, histidine-tagged (B. subtilis) (UniProt P39146).
Assay [3] has as its target ComFB E7K variant, histidine-tagged (B. subtilis) (UniProt P39146).

Residue numbers refer to the chain shown, from its start. Names and notes keep the numbering of the source. Results are given in words; binding and its absence hold for the method and conditions named. Tags and fused reporters may be left off the sequences shown.

B1: ComFB N4K variant, histidine-tagged (protein, UniProt P39146 1-98)
chain: MLVKSKEIVMKELLDRYMDQLHMACTCQVCQNDVLALSLNKVSPSYVTDFKKIAYTKAELVDKQKNTAMLVILAESAAVVSESPSDLCQTKQEEAFIN
As to B1, in assay [1], the binding result is recorded as “no binding”.

B2: ComFB Y46F variant, histidine-tagged (protein, UniProt P39146 1-98)
chain: B1 chain with K4N, Y46F
Consider B2, for which the binding entry in assay [2] is given as “no binding”.

B3: ComFB E7K variant, histidine-tagged (protein, UniProt P39146 1-98)
chain: B1 chain with K4N, E7K
For B3, the binding entry in assay [3] is “no binding”.
